Results are given in words; binding and its absence hold for the method and conditions named. Some results given as binding are weak or reduced against the parent protein; the word gives no strength.
How the values were obtained:
[1] = target: cynomolgus VISTA expressed on K562 cells (cynomolgus); assay: FACS
[2] = target: T1, human VISTA expressed on cells (human) (UniProt Q9H7M9); assay: FACS
T1 sequence: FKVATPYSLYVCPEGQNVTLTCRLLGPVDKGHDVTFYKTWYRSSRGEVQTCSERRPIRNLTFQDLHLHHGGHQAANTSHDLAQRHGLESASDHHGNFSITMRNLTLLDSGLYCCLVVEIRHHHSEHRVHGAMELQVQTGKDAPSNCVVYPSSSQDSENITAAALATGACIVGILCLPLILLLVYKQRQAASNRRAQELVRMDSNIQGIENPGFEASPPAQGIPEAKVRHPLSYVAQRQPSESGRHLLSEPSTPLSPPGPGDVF

[3] = target: cynomolgus VISTA extracellular domain (cynomolgus); assay: ELISA
[4] = target: T1, human VISTA expressed on cells (human); assay: flow cytometry on K562-G8 cells expressing human VISTA, antibody at 5 µg/ml, goat anti-human IgG1-PE

Measured: binding

B1: VSTB50 (antibody, human IgG1, kappa, V domains shown)
VH: QVQLVQSGSELKKPGASVKVSCKASGYTFTNYGLNWVRQAPGQGLEWMGWINPYTGEPTYADDFKGRFVFSLDTSVSTAYLQICSLKAEDTAVYYCAREGYGNYIFPYWGQGTLVTVSS
VL: DIVMTQTPLSLSVTPGQPASISCRASESVDTYANSLMHWYLQKPGQPPQLLIYRASNLESGVPDRFSGSGSGTDFTLKISRVEAEDVGVYYCQQTNEDPRTFGQGTKLEIKR
binds: all assays above

B2: VSTB60 (antibody, human IgG1, kappa, V domains shown)
VH: QVQLVQSGSELKKPGASVKVSCKASGYTFTNYGMTWVRQAPGQGLEWMGWINTYTGESTYADDFKGRFVFSLDTSVSTAYLQICSLKAEDTAVYYCARDYYGIYVSAYWGQGTLVTVSS
VL: DIVMTQTPLSLSVTPGQPASISCRASESVDNYANSFMHWYLQKPGQSPQLLIYRASNLESGVPDRFSGSGSGTDFTLKISRVEAEDVGVYYCQQSHEDPYTFGQGTKLEIKR
binds: all assays above

B3: VSTB53 (antibody, human IgG1, kappa, V domains shown)
VH: QVQLVQSGAEVKKPGASVKVSCKASGYTFTHYTIHWVRQAPGQGLEWMGYIIPSSGYSEYNQKFKDRVTMTRDTSTSTVYMELSSLRSEDTAVYYCARGAYDDYYDYYAMDYWGQGTLVTVSS
VL: DIVMTQSPLSLPVTPGEPASISCRSSQTIVHSNGNTYLEWYLQKPGQSPQLLIYKVSNRFSGVPDRFSGSGSGTDFTLKISRVEAEDVGVYYCFQASHVPWTFGQGTKLEIKR
binds: all assays above

B4: VSTB95 (antibody, human IgG1, kappa, V domains shown)
VH: EVQLVESGGGLVQPGGSLRLSCAASGFTFRNYGMSWVRQAPGKGLEWVASIISGGSYTYYPDSVKGRFTISRDNAKNSLYLQMNSLRAEDTAVYYCARIYDHDGDYYAMDYWGQGTTVTVSS
VL: DIVMTQSPLSLPVTPGEPASISCRSSQSIVHSNGNTYLEWYLQKPGQSPQLLIYKVSNRFSGVPDRFSGSGSGTDFTLKISRVEAEDVGVYYCFQGSHVPWTFGQGTKLEIKR
binds: all assays above
